Measurements from publication PMC7782792.
These are yes or no findings as the source states them, for the method shown. Binding seen in cells or lysates may run through a third protein. A yes stands for co-enrichment or nearness to the bait. Other partners may have been found.

By UniProt entry, the sequences of proteins in these tests, tags left out. Where a name states a change or a piece, a line headed by the entry shows the natural chain unless it says otherwise. Residues count along the entry.
UniProt P10636: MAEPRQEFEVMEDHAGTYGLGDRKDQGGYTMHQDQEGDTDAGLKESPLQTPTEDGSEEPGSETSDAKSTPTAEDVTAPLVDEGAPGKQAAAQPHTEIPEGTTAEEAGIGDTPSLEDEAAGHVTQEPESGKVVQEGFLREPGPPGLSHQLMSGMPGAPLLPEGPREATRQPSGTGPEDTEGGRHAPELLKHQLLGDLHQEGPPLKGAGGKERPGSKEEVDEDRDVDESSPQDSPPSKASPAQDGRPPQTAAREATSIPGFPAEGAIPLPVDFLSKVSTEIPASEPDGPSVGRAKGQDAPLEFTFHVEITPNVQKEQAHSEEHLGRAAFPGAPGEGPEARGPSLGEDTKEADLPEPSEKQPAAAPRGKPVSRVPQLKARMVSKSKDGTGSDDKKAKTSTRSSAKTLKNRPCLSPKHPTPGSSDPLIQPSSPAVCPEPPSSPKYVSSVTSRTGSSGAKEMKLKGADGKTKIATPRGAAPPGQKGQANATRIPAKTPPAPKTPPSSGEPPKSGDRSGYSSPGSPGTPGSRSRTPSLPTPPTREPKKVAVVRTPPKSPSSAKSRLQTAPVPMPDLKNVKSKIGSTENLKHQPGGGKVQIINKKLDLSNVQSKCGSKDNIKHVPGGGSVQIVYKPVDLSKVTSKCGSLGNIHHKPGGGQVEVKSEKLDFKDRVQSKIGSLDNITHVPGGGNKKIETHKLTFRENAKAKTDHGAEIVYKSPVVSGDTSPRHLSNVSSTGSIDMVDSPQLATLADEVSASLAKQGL
UniProt P06756, residues 31-1048: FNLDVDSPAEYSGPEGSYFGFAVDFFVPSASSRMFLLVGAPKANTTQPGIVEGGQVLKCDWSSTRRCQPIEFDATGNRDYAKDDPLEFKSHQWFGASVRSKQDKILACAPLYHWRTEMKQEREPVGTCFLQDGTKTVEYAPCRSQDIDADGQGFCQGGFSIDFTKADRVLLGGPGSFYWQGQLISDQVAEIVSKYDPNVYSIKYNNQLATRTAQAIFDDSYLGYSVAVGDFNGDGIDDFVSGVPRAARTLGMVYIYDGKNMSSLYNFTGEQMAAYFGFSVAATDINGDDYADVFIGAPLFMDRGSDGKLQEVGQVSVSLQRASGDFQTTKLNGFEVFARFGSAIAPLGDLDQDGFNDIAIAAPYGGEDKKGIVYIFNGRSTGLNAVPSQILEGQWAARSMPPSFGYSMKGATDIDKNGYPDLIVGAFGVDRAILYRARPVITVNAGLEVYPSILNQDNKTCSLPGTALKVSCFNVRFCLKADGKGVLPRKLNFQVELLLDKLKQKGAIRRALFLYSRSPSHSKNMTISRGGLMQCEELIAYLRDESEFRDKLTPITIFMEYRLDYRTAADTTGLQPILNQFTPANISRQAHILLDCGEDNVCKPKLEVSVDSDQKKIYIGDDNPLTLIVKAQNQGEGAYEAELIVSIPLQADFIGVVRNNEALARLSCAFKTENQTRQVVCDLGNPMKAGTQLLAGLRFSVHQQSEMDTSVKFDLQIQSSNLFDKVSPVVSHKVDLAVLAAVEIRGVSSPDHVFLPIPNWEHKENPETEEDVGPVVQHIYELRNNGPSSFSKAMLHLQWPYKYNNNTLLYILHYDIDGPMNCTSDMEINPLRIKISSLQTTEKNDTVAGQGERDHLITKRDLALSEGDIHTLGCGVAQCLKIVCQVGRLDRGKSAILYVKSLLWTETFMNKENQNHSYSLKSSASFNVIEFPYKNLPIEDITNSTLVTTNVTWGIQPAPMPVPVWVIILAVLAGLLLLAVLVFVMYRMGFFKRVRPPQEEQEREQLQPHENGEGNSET
UniProt P05556: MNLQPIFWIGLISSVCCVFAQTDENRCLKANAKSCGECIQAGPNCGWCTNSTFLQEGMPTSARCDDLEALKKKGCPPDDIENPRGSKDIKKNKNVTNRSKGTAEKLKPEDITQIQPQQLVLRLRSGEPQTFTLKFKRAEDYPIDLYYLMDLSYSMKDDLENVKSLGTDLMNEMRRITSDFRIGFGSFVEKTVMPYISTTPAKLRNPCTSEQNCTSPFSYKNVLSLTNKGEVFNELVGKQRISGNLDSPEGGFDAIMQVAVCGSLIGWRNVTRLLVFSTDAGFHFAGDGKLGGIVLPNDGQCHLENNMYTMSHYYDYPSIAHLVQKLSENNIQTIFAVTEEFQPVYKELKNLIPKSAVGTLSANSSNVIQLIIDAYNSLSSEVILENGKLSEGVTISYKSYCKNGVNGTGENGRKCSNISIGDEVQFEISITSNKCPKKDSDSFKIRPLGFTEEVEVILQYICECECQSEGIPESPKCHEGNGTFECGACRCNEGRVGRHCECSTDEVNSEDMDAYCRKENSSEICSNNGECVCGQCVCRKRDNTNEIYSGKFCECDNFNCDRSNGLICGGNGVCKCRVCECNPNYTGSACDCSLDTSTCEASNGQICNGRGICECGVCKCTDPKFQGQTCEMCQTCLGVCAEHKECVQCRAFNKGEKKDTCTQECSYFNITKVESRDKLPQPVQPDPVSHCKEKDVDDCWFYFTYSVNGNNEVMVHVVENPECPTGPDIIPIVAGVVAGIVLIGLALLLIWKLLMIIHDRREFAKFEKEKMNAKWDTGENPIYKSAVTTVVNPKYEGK

Target: Tau-APEX2 (APEX2 fused to the C-terminus of Tau) (human) (UniProt P10636)
Assay: proximity labelling; Tau-APEX2 incubated with HEK293T cells over-expressing Flag-tagged ITGαV or GFP-tagged ITGβ1; cell surface biotinylation, streptavidin pulldown, immunoblotting with tag antibodies; only the target purified

| binding | Substance |
| --- | --- |
| binds | Flag-tagged ITGαV (from UniProt P06756 31-1048) (receptor) |
| binds | GFP-tagged ITGβ1 (from UniProt P05556 21-798) (receptor) |
